Source: paper PMC7987981
These are yes or no findings as the source states them, for the method shown. Binding seen in cells or lysates may run through a third protein. Some results given as binding are weak or reduced against the parent protein; the word gives no strength. For part of these data: Tags and fused reporters may be left off the sequences shown.

Experiments:
Experiment in all cases: co-IP; HEK293T co-transfected with NPAS3-FLAG or NPAS4-Myc/FLAG variant and ARNT2-Strep; 500 ug whole cell extract on anti-FLAG M2 affinity gel, 3 h at 4 C; washed with 150 mM NaCl, 10 mM Tris/HCl pH 8.0, 0.1% NP-40, 5% glycerol; eluted with 3xFLAG peptide; blot with anti-FLAG then anti-Strep
[1] = molecular target: NPAS4 170X-Myc/FLAG (c.508C>T nonsense variant) (human) (UniProt Q8IUM7)
[2] = molecular target: T1, NPAS4-Myc/FLAG wildtype (neuronal PAS 4) (human) (UniProt Q8IUM7)
T1 sequence: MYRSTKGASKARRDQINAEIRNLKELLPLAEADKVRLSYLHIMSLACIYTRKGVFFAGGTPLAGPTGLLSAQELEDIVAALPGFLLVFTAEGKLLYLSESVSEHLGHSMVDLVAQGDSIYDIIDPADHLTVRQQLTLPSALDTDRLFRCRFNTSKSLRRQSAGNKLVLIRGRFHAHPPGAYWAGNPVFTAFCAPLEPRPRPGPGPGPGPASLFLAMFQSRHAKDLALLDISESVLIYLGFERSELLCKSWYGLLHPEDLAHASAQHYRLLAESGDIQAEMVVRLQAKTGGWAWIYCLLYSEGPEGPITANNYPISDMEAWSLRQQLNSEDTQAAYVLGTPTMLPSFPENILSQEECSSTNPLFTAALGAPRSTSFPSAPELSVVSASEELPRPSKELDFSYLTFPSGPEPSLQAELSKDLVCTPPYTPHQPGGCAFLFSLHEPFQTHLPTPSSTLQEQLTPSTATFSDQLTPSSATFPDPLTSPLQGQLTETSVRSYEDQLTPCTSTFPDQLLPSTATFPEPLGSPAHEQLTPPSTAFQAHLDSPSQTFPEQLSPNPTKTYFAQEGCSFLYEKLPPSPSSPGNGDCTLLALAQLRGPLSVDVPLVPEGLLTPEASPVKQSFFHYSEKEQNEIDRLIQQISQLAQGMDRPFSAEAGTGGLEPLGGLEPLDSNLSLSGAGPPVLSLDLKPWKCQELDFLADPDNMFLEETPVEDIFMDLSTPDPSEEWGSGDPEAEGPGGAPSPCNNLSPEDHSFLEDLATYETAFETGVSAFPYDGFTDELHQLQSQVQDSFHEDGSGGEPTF

[3] = molecular target: T2, NPAS3-FLAG wildtype (neuronal PAS 3) (human) (UniProt Q8IXF0)
T2 sequence: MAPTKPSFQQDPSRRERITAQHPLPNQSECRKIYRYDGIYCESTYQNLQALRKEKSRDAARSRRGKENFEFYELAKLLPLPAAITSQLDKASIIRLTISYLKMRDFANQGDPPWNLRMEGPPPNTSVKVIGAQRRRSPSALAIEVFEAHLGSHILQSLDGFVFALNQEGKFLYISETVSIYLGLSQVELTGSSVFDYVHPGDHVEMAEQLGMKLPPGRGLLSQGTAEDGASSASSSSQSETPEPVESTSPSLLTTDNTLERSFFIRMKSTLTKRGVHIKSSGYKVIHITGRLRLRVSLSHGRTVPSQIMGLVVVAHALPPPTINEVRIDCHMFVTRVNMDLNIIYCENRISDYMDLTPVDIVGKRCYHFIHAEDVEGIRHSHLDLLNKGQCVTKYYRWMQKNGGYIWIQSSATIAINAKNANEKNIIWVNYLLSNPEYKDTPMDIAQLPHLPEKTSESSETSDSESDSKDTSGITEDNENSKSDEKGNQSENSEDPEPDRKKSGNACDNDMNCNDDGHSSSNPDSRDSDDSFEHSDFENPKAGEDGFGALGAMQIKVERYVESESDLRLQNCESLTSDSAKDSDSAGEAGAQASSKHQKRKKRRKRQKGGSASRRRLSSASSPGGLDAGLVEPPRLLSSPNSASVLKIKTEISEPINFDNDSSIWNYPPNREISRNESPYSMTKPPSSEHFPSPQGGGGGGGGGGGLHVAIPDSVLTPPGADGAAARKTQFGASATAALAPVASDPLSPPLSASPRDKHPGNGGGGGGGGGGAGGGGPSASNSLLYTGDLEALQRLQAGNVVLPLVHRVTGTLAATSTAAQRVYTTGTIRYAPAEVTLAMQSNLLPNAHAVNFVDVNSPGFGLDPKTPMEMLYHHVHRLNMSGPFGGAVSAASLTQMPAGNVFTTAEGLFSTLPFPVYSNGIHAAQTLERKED

Question: Which results are given for “ARNT2-Strep (from UniProt Q9HBZ2-1 1-717)”?
Answer: binding [1]: no binding; binding [2]: binds; binding [3]: binds
